{"sequences": {"note": "Protein sequences, listed by entry. Tags and fused reporters are not part of them. Lines headed by an entry give the natural chain unless they say otherwise; changes in a name come on top.", "UniProt P08034": "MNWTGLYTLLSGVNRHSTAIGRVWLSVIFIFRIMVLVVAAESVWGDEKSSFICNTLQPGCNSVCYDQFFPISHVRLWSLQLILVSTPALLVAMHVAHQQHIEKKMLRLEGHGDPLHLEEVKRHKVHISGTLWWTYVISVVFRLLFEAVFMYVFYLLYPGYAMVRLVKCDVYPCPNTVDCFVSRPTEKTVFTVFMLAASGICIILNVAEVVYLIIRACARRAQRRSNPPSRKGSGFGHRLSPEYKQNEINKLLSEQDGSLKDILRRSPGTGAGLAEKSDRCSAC"}, "source": "paper PMC5996148", "experiment_in_all_cases": "protein microarray (ProtoArray v5.0), streptavidin-Alexa Fluor 647", "settings_in_all_cases": "3'-biotin; 20 mM Tris (pH 7.5), 5 mM MgCl2, 100 mM KCl, 0.1% Tween-20, A/T-rich and random oligonucleotide blockers; temperature not stated; high values mean tight binding", "key": {"GDI1 (human)": {"tested_on": "GDI1 (human)"}, "[1]": {"tested_on": "GDP-mannose 4,6 dehydratase (human)"}, "GDPD3 (human)": {"tested_on": "GDPD3 (human)"}, "GDPD5 (human)": {"tested_on": "GDPD5 (human)"}, "GFPT1 (human)": {"tested_on": "GFPT1 (human)"}, "GGA2 (human)": {"tested_on": "GGA2 (human)"}, "GGPS1 (human)": {"tested_on": "GGPS1 (human)"}, "GGT6 (human)": {"tested_on": "GGT6 (human)"}, "GH1 (human)": {"tested_on": "GH1 (human)"}, "GHRL (human)": {"tested_on": "GHRL (human)"}, "GIF (human)": {"tested_on": "GIF (human)"}, "GIMAP6 (human)": {"tested_on": "GIMAP6 (human)"}, "GIP (human)": {"tested_on": "GIP (human)"}, "GIPC2 (human)": {"tested_on": "GIPC2 (human)"}, "GIYD2 (human)": {"tested_on": "GIYD2 (human)"}, "GJB1": {"biological_target": "GJB1 (UniProt P08034)"}, "GJB5 (human)": {"tested_on": "GJB5 (human)"}, "GK3P (human)": {"tested_on": "GK3P (human)"}, "GLO1 (human)": {"tested_on": "GLO1 (human)"}, "GLOD4": {"biological_target": "T1, GLOD4 (UniProt Q9HC38)", "T1 sequence": "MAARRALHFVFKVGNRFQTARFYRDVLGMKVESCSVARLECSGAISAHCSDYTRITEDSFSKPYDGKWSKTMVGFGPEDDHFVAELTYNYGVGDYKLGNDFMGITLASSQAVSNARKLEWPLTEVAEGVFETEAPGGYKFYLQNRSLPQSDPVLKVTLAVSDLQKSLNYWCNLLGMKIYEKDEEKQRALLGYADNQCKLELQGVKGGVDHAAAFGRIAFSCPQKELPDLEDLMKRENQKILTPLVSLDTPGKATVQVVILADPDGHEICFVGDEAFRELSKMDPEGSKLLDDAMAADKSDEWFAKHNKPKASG"}}, "note": "“And” between values parts separate entries of the source, which are not always exact repeats. Equal entries are not always repeated. This is one part of the list. For some assays here: The exact form of the protein is not confirmed."}
{"sequence": "GGGAGGCTGAGGCAGG [G4-1 biotinylated (PQS2)]", "values": [{"measurement": "binding signal", "setting": "GDI1 (human)", "value": -0.306, "unit": "z-score"}, {"measurement": "binding signal", "setting": "[1]", "value": -0.343, "unit": "z-score"}, {"measurement": "binding signal", "setting": "GDPD3 (human)", "value": -0.29, "unit": "z-score"}, {"measurement": "binding signal", "setting": "GDPD5 (human)", "value": -0.335, "unit": "z-score"}, {"measurement": "binding signal", "setting": "GFPT1 (human)", "value": -0.317, "unit": "z-score"}, {"measurement": "binding signal", "setting": "GGA2 (human)", "value": -0.348, "unit": "z-score"}, {"measurement": "binding signal", "setting": "GGPS1 (human)", "value": -0.316, "unit": "z-score"}, {"measurement": "binding signal", "setting": "GGT6 (human)", "value": -0.311, "unit": "z-score"}, {"measurement": "binding signal", "setting": "GH1 (human)", "value": -0.292, "unit": "z-score"}, {"measurement": "binding signal", "setting": "GHRL (human)", "value": -0.289, "unit": "z-score"}, {"measurement": "binding signal", "setting": "GIF (human)", "value": -0.336, "unit": "z-score"}, {"measurement": "binding signal", "setting": "GIMAP6 (human)", "value": -0.339, "unit": "z-score"}, {"measurement": "binding signal", "setting": "GIP (human)", "value": -0.287, "unit": "z-score"}, {"measurement": "binding signal", "setting": "GIPC2 (human)", "value": -0.263, "unit": "z-score"}, {"measurement": "binding signal", "setting": "GIYD2 (human)", "value": -0.273, "unit": "z-score"}, {"measurement": "binding signal", "setting": "GJB1", "value": -0.305, "unit": "z-score"}, {"measurement": "binding signal", "setting": "GJB5 (human)", "value": -0.33, "unit": "z-score"}, {"measurement": "binding signal", "setting": "GK3P (human)", "value": -0.242, "unit": "z-score"}, {"measurement": "binding signal", "setting": "GLO1 (human)", "value": "-0.308 z-score and -0.278 z-score"}, {"measurement": "binding signal", "setting": "GLOD4", "value": -0.263, "unit": "z-score"}]}
